Reference: US20070275104A1, “Food Compositions and Methods of Treating Periodontal Disease” (priority 2006, published 2007)

Target: Recombinant MMP-9
Assay: MMP-9 enzyme assay with DQ gelatin fluorescent substrate
Conditions: 22° C., EAB pH 7.0, soluble phase of extracts
Method: From the studies of repeated activity and lack of interference, we were able to identify three lead ingredients for further development (A, C, D; A & B were two forms of the same dried extract). These were tested in a second laboratory, using a more sensitive in vitro (non-cellular) assay system, again for individual activity and interference/synergy among MMP-inhibitors and the IL-1-inhibitor against all three forms of MMP. These assays used enzyme kinetic dose curves to determine the IC50 of each extract, Doxycyclin, and combinations of extracts (including the IL-1-inhibitor, e.g., Rosehips).
MMP-2 and MMP-9: Recombinant MMP-2 and MMP-9 were expressed as recombinant proteins and purified in constitutively active forms.
DQ gelatin: A highly labeled porcine gelatin substrate (Molecular Probes, Eugine, Oreg.) was used for the enzyme assays with MMP-2 and MMP-9. The substrate degradation was measured with λex at 494 nm and λem at 515 nm
To reduce any self-degradation of the gelatin substrate, all assays were performed at 22° C. The enzyme assay buffer (EAB) used for MMP-2, MMP-9, and MMP-8 was 50 mM Tris, pH 7.0, 200 mM NaCl, 5 mM CaCl2, 1 μM ZnCl2, 0.05% Brij 35. Assays were performed under conditions where the substrates were not rate limiting. […]

In the case of `C[C@H]1c2cccc(O)c2C(O)=C2C(=O)[C@]3(O)C(O)=C(C(N)=O)C(=O)[C@@H](N(C)C)[C@@H]3[C@@H](O)[C@@H]21` [DOX, Doxycycline], the “IC50 for MMP-9” value is reported as “˜40 μg/ml and 40 μg/ml”.

Certain results were filed several times, with different values. The list is limited to them. There may be further records. The values listed for one entry seem to repeat one measurement on other runs, samples or individuals.
